This assay relates to BDF1 mice, colon carcinoma 38 sc, T/C %. Description: NCI In Vivo Anticancer Drug Screen. Data for tumor model Colon Carcinoma 38 (subcutaneous) in B6D2F1 (BDF1) mice. In short, it runs like this:
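Transplantable tumor in mice; compound-treated vs vehicle-dosed controls. Measured survival or tumor size; value = T ÷ C.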

Where [1] appears, read: T/C endpoint: median tumor weight (est.), dose: 12.5 mg/kg/injection, schedule: Q07DX002 (ip), vehicle: saline with Tween-80, evaluated on day 20, higher T/C = larger tumour.
[2] abbreviates: T/C endpoint: median tumor weight (est.), dose: 200.0 mg/kg/injection, schedule: Q07DX002 (ip), vehicle: saline with Tween-80, higher T/C = larger tumour.
Where [3] appears, read: T/C endpoint: median tumor weight (est.), dose: 50.0 mg/kg/injection, schedule: Q07DX002 (ip), vehicle: Klucel (hydroxypropylcellulose) (HPC), evaluated on day 20, higher T/C = larger tumour.
[4] abbreviates: T/C endpoint: median tumor weight (est.), dose: 400.0 mg/kg/injection, schedule: Q07DX002 (ip), vehicle: saline with Tween-80, higher T/C = larger tumour.

The list shows only some results of the screen, not a fair sample: it gathers tests that were run many times, whatever their T/C, doses with no T/C, and many T/C values between a quarter and a half above the control. Other doses and runs of a compound stand elsewhere. T/C is the treated group as % of the vehicle group. Schedule codes are those of the source, read here as Q, the interval in days (D) or hours (H), X, the number of doses. Some T/C values are followed by the survivors on the day toxicity was checked, most often the fifth; where none is given, no animal had died by that day. Some entries were tested several times; their values stand side by side, smallest first. Some doses have a count of surviving animals in place of a T/C: the source files T/C as zero there, which appears to mark a toxic dose or a test without result, not a measured value. Counts of survivors are from the toxicity check (mostly the fifth day) where no day follows; animals may have died later. For survival time, the PubChem record calls one and a half times the control and up active, and a quarter to a half above the control has no call in these data; cut-offs in other NCI protocols can differ.

Regarding `COC1=C(OC)C(=O)C(SC/C=C(\C)CCCC(C)CCCC(C)CCCC(C)C)=CC1=O` (configuration not stated), the T/C was 126 % of control under setting [1] and 141 % of control (T/C endpoint: median tumor weight (est.), dose: 50.0 mg/kg/injection, schedule: Q07DX002 (ip), vehicle: saline with Tween-80, evaluated on day 20, higher T/C = larger tumour).

Turning to `CNC(=O)n1c(N)nc(-c2ccccc2)c1-c1ccccc1`, the survivor count under setting [2] is 4 of 10 on day 20.

As to `Nc1cccc(=O)[nH]1`, the survivor count (T/C endpoint: median tumor weight (est.), dose: 800.0 mg/kg/injection, schedule: Q07DX002 (ip), vehicle: suspension in saline, higher T/C = larger tumour) was 6 of 10 on day 20.

In the case of `CC[C@H]1CN2CCc3cc(OC)c(OC)cc3[C@@H]2C[C@@H]1C[C@H]1NCCc2cc(O)c(OC)cc21`, under “T/C endpoint: median tumor weight (est.), dose: 48.0 mg/kg/injection, schedule: Q07DX002 (ip), vehicle: suspension in saline, higher T/C = larger tumour”, the survivor count is reported as 6 of 10 on day 20.

On to `O=c1[nH]c(=O)n(C2CC(O)C(CO)O2)cc1I` (configuration not stated), for which the T/C (T/C endpoint: median tumor weight (est.), dose: 100.0 mg/kg/injection, schedule: Q07DX002 (ip), vehicle: suspension in saline, evaluated on day 20, higher T/C = larger tumour) is 132 % of control. Besides, for the setting “T/C endpoint: median tumor weight (est.), dose: 1600.0 mg/kg/injection, schedule: Q07DX002 (ip), vehicle: suspension in saline, higher T/C = larger tumour”, the survivor count is 6 of 10 on day 20.

As for `CS(=O)(=O)OCCN(CCOS(C)(=O)=O)c1ccc(C=Nc2ccc(-c3csc(COc4ccccc4)n3)cc2)cc1`, the T/C under setting [3] is 138 % of control.

For `Oc1c(Cl)cc(Cl)cc1C=NCCSc1ccc(Cl)cc1`, where the note is “T/C endpoint: median tumor weight (est.), dose: 400.0 mg/kg/injection, schedule: Q07DX002 (ip), vehicle: Klucel (hydroxypropylcellulose) (HPC), evaluated on day 20, higher T/C = larger tumour”, the T/C is 148 % of control. The survivor count (T/C endpoint: median tumor weight (est.), dose: 800.0 mg/kg/injection, schedule: Q07DX002 (ip), vehicle: Klucel (hydroxypropylcellulose) (HPC), higher T/C = larger tumour) is 2 of 10 on day 20.

Consider `CC(C)(C)C1CCCCC1`, for which the T/C under setting [3] is 136 % of control. For the same molecule, the survivor count (T/C endpoint: median tumor weight (est.), dose: 400.0 mg/kg/injection, schedule: Q07DX002 (ip), vehicle: Klucel (hydroxypropylcellulose) (HPC), higher T/C = larger tumour) was 6 of 10 on day 20.

Consider `C/C=C/C=C1/OC(C)=C(C(C)=O)C1=O`, for which the survivor count reads like this: under setting [4], 0 of 10 on day 20; (T/C endpoint: median tumor weight (est.), dose: 800.0 mg/kg/injection, schedule: Q07DX002 (ip), vehicle: saline with Tween-80, higher T/C = larger tumour) 0 of 10 on day 20 and 2 of 9 on day 20.

On to `Cc1c(-c2ccc(-c3ccccc3F)cc2)nc2ccc(F)cc2c1C(=O)O`, for which the survivor count reads like this: (T/C endpoint: median tumor weight (est.), dose: 40.0 mg/kg/injection, schedule: Q01DX008 (ip), vehicle: water, higher T/C = larger tumour) 6 of 10 on day 20; (T/C endpoint: median tumor weight (est.), dose: 80.0 mg/kg/injection, schedule: Q01DX008 (ip), vehicle: water, higher T/C = larger tumour) 0 of 10 on day 20.

For `C[n+]1ccc(Nc2ccc(NC(=O)c3ccc(Nc4cc[n+](C)c5ccc(N)cc45)cc3)cc2)cc1`, the T/C is, setting by setting: (T/C endpoint: median tumor weight (est.), dose: 4.0 mg/kg/injection, schedule: Q07DX002 (ip), vehicle: water, evaluated on day 20, higher T/C = larger tumour) 137 % of control; (T/C endpoint: median tumor weight (est.), dose: 8.0 mg/kg/injection, schedule: Q07DX002 (ip), vehicle: water, evaluated on day 20, higher T/C = larger tumour) 143 % of control [9 of 10 alive]. The survivor count (T/C endpoint: median tumor weight (est.), dose: 16.0 mg/kg/injection, schedule: Q07DX002 (ip), vehicle: water, higher T/C = larger tumour) was 2 of 10.

Regarding `CC(=O)N(C)C`, the T/C (T/C endpoint: median tumor weight (est.), dose: 225.0 mg/kg/injection, schedule: Q07DX002 (ip), vehicle: saline, evaluated on day 20, higher T/C = larger tumour) was 133 % of control. Also, the survivor count (T/C endpoint: median tumor weight (est.), dose: 7200.0 mg/kg/injection, schedule: Q07DX002 (ip), vehicle: saline, higher T/C = larger tumour) is listed as 0 of 10 on day 20.

Turning to `CC(=O)Nc1ccc(C(=O)C=O)cc1`, the survivor count by setting is: under setting [2], 6 of 10 on day 20; under setting [4], 1 of 10 on day 20 and 5 of 10 on day 20.

For the molecule `[Cl][Pt+2][Cl].[NH-]CC1(C[NH-])CCC1`, the survivor count (T/C endpoint: median tumor weight (est.), dose: 25.0 mg/kg/injection, schedule: Q07DX002 (ip), vehicle: suspension in saline, higher T/C = larger tumour) is on record as 3 of 10 on day 20; the survivor count (T/C endpoint: median tumor weight (est.), dose: 50.0 mg/kg/injection, schedule: Q07DX002 (ip), vehicle: suspension in saline, higher T/C = larger tumour) is 0 of 10 on day 20; the survivor count (T/C endpoint: median tumor weight (est.), dose: 100.0 mg/kg/injection, schedule: Q07DX002 (ip), vehicle: suspension in saline, higher T/C = larger tumour) is recorded as 1 of 10 on day 20; the survivor count (T/C endpoint: median tumor weight (est.), dose: 200.0 mg/kg/injection, schedule: Q07DX002 (ip), vehicle: suspension in saline, higher T/C = larger tumour) is listed as 0 of 10 on day 20; the survivor count (T/C endpoint: median tumor weight (est.), dose: 400.0 mg/kg/injection, schedule: Q07DX002 (ip), vehicle: suspension in saline, higher T/C = larger tumour) is 0 of 10 on day 20.

With `Nc1nc(=S)c2[nH]cnc2[nH]1`, the survivor count by setting is: (T/C endpoint: median tumor weight (est.), dose: 32.0 mg/kg/injection, schedule: Q07DX002 (ip), vehicle: saline, higher T/C = larger tumour) 6 of 10; (T/C endpoint: median tumor weight (est.), dose: 32.0 mg/kg/injection, schedule: Q07DX003 (ip), vehicle: saline, higher T/C = larger tumour) 3 of 10.

In the case of `Cc1cc(NCCCN(C)C)c2ccc3c(ccc4c(NCCCN(C)C)cc(C)nc43)c2n1`, the survivor count is 0 of 10 on day 20 (T/C endpoint: median tumor weight (est.), dose: 12.5 mg/kg/injection, schedule: Q07DX002 (ip), vehicle: saline, higher T/C = larger tumour); 0 of 10 on day 20 (T/C endpoint: median tumor weight (est.), dose: 25.0 mg/kg/injection, schedule: Q07DX002 (ip), vehicle: saline, higher T/C = larger tumour); 0 of 10 on day 20 (T/C endpoint: median tumor weight (est.), dose: 50.0 mg/kg/injection, schedule: Q07DX002 (ip), vehicle: saline, higher T/C = larger tumour); 0 of 10 on day 20 (T/C endpoint: median tumor weight (est.), dose: 100.0 mg/kg/injection, schedule: Q07DX002 (ip), vehicle: saline, higher T/C = larger tumour); 0 of 10 on day 20 (T/C endpoint: median tumor weight (est.), dose: 200.0 mg/kg/injection, schedule: Q07DX002 (ip), vehicle: saline, higher T/C = larger tumour); 0 of 10 on day 20 (T/C endpoint: median tumor weight (est.), dose: 400.0 mg/kg/injection, schedule: Q07DX002 (ip), vehicle: saline, higher T/C = larger tumour).

In the case of `CCCCCCCC(=O)N/N=C(\CO)[C@]1(O)Cc2c(O)c3c(c(O)c2[C@@H](OC2CC(N)C(O)C(C)O2)C1)C(=O)c1c(OC)cccc1C3=O` (some centres not stated), the T/C (T/C endpoint: median survival time, dose: 78.0 mg/kg/injection, schedule: Q07DX002 (sc), vehicle: saline, higher T/C = longer survival) is 128 % of control. The survivor count (T/C endpoint: median tumor weight (est.), dose: 108.0 mg/kg/injection, schedule: Q07DX002 (ip), vehicle: distilled water + Tween-80, higher T/C = larger tumour) is 0 of 10 on day 20 and 4 of 10 on day 20; the survivor count (T/C endpoint: median tumor weight (est.), dose: 108.0 mg/kg/injection, schedule: Q07DX002 (ip), vehicle: suspension in saline, higher T/C = larger tumour) is 0 of 10 on day 20; the survivor count (T/C endpoint: median tumor weight (est.), dose: 216.0 mg/kg/injection, schedule: Q07DX002 (ip), vehicle: distilled water + Tween-80, higher T/C = larger tumour) was 0 of 10 on day 20.

On to `CONc1ccn(C2OC(CO)C(O)C2O)c(=O)n1` (configuration not stated), for which the T/C is, setting by setting: (T/C endpoint: median tumor weight (est.), dose: 100.0 mg/kg/injection, schedule: Q07DX002 (ip), vehicle: saline, evaluated on day 20, higher T/C = larger tumour) 128 % of control; (T/C endpoint: median tumor weight (est.), dose: 200.0 mg/kg/injection, schedule: Q07DX002 (ip), vehicle: saline, evaluated on day 20, higher T/C = larger tumour) 126 % of control; (T/C endpoint: median tumor weight (est.), dose: 400.0 mg/kg/injection, schedule: Q07DX002 (ip), vehicle: saline, evaluated on day 20, higher T/C = larger tumour) 135 % of control [8 of 10 alive on day 20]. Besides, the survivor count (T/C endpoint: median tumor weight (est.), dose: 800.0 mg/kg/injection, schedule: Q07DX002 (ip), vehicle: saline, higher T/C = larger tumour) is 1 of 10 on day 20 and 4 of 10 on day 20.

As to `N/C=N/O`, the T/C (T/C endpoint: median tumor weight (est.), dose: 12.5 mg/kg/injection, schedule: Q07DX002 (ip), vehicle: saline, evaluated on day 20, higher T/C = larger tumour) was 143 % of control.

Consider `NC(=O)/C=C/C(=O)c1c(Cl)cccc1Cl`, for which the T/C under setting [1] was 128 % of control. The survivor count reads like this: (T/C endpoint: median tumor weight (est.), dose: 25.0 mg/kg/injection, schedule: Q07DX002 (ip), vehicle: saline with Tween-80, higher T/C = larger tumour) 3 of 10 on day 20; (T/C endpoint: median tumor weight (est.), dose: 50.0 mg/kg/injection, schedule: Q07DX002 (ip), vehicle: saline with Tween-80, higher T/C = larger tumour) 0 of 10 on day 20 and 1 of 10 on day 20.

For the molecule `CC(=O)OCC1OC([S-])C(OC(C)=O)C(OC(C)=O)C1OC(C)=O.CC[PH+](CC)CC.CC[PH+](CC)CC.[Au].[Au]` (configuration not stated), the T/C (T/C endpoint: median tumor weight (est.), dose: 2.5 mg/kg/injection, schedule: Q07DX002 (ip), vehicle: Klucel (hydroxypropylcellulose) (HPC), evaluated on day 20, higher T/C = larger tumour) is 127 % of control; the T/C (T/C endpoint: median tumor weight (est.), dose: 5.0 mg/kg/injection, schedule: Q07DX002 (ip), vehicle: Klucel (hydroxypropylcellulose) (HPC), evaluated on day 20, higher T/C = larger tumour) was 135 [9 of 10 alive on day 20] and 143 % of control. The survivor count was 0 of 10 on day 20 and 3 of 10 on day 20 (T/C endpoint: median tumor weight (est.), dose: 20.0 mg/kg/injection, schedule: Q07DX002 (ip), vehicle: Klucel (hydroxypropylcellulose) (HPC), higher T/C = larger tumour); 0 of 10 on day 20 (T/C endpoint: median tumor weight (est.), dose: 40.0 mg/kg/injection, schedule: Q07DX002 (ip), vehicle: Klucel (hydroxypropylcellulose) (HPC), higher T/C = larger tumour).

For the origin of these results see PubChem BioAssay AID212 (DTP/NCI, 2004).
